In the supplement of paper PMC12823440, “Inhibitors supercharge kinase turnover through native proteolytic circuits” (Nature, 2025):
Structures can show the parent of a compound that is named as a salt. Some of the results follow. The calls rarely recur for the same compound in another form.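 In K562 cells expressing nanoluciferase-fused kinases, luminescence was recorded at 4 h intervals between 2 and 18 h, normalized as percent of control with DMSO at 100% and a positive control at 0%. A significant (2 sigma) signal drop marks a time point as decreased. The authors' rule for a hit is not shown and takes in more than the number of time points.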

The chains behind the UniProt entries cited, without tags or fusion partners. Where a name states a change or a piece, a line headed by the entry shows the natural chain unless it says otherwise.
UniProt Q15208: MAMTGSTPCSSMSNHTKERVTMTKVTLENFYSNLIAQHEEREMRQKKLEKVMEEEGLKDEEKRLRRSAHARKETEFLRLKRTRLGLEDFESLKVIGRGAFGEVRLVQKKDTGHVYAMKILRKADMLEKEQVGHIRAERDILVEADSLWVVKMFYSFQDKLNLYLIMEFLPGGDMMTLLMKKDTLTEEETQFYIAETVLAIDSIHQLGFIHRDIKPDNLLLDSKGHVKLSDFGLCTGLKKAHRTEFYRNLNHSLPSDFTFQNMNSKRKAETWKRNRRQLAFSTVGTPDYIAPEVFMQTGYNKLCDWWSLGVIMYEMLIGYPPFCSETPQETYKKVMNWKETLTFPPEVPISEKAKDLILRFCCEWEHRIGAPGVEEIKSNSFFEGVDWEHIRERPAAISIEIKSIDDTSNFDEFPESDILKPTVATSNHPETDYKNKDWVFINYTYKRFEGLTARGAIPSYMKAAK
UniProt P42680: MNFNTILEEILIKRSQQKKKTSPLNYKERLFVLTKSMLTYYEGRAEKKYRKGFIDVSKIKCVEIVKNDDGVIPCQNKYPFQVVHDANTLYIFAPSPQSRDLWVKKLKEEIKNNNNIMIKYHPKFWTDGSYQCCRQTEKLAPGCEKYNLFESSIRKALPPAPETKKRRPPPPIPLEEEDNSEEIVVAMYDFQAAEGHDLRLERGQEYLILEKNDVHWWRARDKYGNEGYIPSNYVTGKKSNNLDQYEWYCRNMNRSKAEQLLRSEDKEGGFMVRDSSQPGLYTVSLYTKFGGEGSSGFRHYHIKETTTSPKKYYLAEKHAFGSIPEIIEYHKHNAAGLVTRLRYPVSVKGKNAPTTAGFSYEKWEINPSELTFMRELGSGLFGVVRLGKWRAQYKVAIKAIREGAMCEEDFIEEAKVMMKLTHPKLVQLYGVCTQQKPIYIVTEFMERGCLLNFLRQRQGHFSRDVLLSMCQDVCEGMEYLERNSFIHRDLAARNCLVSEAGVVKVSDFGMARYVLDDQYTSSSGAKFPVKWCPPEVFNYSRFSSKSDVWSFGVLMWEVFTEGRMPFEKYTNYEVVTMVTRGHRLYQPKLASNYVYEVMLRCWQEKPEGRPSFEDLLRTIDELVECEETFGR
UniProt P29597: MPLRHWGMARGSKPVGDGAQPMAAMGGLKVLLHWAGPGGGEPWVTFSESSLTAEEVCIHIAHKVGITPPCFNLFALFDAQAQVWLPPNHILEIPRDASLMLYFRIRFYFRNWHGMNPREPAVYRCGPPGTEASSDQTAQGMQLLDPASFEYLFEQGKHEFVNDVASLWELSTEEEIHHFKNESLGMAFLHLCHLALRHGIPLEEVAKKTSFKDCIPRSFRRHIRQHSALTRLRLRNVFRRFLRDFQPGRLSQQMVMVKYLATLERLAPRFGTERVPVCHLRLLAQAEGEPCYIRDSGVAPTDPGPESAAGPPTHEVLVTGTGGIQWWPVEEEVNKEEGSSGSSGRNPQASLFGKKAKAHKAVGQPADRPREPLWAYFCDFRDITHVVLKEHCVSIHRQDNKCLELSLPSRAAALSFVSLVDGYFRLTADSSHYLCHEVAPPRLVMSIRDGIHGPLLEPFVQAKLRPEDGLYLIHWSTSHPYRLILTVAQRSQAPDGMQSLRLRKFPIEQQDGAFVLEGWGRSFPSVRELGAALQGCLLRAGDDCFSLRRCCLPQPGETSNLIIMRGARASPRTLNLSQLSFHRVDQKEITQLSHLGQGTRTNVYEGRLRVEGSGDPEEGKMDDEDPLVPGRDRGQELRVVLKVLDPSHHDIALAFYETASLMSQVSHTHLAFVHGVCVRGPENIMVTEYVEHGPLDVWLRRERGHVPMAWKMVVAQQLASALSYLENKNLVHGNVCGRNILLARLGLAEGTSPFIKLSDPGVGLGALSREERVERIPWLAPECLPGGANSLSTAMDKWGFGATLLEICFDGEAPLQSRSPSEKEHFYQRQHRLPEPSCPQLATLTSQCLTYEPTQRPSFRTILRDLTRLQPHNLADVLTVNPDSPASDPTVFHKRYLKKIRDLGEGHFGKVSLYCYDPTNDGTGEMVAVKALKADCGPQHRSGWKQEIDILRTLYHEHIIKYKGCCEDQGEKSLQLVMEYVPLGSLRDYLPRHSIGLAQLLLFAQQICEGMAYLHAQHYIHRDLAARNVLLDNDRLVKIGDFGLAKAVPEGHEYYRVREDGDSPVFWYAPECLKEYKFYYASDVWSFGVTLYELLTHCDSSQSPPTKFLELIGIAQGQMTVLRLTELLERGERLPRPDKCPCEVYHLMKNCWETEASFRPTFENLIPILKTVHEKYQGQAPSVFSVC
UniProt Q6PHR2: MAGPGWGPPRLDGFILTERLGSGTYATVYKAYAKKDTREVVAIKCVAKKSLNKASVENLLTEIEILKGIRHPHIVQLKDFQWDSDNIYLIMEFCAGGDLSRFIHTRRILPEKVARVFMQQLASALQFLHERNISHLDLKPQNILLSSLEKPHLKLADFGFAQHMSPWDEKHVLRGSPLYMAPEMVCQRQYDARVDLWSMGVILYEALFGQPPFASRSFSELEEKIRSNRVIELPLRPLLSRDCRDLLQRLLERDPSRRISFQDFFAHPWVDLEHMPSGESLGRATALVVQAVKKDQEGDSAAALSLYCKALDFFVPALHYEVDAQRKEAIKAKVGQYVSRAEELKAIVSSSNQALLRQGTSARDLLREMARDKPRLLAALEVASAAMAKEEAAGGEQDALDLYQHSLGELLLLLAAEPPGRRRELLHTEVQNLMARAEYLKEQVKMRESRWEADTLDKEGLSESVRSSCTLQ
UniProt P07947, whole entry, looked up: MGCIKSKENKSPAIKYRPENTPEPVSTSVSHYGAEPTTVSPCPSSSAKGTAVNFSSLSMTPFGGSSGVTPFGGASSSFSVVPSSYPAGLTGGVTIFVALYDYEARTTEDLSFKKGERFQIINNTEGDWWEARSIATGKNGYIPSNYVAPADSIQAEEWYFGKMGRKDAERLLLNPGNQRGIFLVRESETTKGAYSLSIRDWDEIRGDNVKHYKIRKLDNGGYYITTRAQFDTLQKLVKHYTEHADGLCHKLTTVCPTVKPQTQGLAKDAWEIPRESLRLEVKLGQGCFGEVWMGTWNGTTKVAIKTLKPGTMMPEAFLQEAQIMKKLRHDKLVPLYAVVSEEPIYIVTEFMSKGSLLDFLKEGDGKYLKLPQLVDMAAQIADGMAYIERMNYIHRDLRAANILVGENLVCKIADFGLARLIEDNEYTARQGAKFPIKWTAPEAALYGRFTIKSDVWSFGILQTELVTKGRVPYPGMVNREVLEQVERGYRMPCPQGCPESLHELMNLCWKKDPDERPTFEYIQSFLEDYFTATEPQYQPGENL
UniProt P43403: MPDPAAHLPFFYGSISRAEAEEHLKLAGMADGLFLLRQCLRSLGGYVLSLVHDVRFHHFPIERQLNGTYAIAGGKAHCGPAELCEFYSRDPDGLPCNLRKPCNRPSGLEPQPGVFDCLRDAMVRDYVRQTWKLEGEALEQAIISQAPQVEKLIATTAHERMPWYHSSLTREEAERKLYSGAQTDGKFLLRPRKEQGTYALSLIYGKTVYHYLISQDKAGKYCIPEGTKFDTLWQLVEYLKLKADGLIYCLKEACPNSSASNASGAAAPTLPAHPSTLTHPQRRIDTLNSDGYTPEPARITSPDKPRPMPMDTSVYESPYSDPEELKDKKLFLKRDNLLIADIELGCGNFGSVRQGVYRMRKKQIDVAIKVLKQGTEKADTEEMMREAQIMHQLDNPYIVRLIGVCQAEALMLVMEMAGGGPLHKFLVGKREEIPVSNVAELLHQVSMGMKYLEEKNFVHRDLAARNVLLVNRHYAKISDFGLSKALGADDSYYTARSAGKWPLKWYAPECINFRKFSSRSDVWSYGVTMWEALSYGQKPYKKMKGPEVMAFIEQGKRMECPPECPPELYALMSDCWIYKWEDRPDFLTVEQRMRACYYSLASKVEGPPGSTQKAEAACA
UniProt P00519, whole entry: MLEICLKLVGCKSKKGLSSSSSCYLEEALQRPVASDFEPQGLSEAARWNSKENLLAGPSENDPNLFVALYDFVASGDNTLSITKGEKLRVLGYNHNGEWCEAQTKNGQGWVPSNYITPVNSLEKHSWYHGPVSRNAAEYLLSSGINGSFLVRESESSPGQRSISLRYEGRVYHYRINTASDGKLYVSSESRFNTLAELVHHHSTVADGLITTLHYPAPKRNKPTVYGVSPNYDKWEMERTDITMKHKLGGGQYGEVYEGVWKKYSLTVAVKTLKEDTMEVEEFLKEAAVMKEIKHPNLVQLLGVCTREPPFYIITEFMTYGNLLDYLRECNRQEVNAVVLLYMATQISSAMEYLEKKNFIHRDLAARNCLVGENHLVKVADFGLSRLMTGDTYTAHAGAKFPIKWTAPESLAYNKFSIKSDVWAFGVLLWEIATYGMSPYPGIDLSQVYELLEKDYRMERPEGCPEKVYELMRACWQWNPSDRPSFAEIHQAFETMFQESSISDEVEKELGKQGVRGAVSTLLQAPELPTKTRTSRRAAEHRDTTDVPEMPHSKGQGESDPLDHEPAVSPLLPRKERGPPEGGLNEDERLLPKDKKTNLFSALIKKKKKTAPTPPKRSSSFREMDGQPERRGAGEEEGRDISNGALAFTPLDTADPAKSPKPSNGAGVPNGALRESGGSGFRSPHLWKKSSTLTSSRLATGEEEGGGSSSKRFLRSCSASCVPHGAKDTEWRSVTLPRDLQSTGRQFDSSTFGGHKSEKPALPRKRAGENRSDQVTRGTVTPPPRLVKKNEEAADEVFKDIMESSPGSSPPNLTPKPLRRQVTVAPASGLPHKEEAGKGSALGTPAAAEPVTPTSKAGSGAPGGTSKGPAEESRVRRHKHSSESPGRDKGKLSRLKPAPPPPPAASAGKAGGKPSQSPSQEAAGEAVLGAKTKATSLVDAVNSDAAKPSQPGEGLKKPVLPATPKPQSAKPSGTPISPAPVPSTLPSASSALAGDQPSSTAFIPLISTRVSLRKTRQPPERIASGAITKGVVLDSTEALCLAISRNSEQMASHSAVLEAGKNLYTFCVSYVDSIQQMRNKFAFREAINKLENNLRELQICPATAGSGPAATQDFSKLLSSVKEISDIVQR
UniProt P31749: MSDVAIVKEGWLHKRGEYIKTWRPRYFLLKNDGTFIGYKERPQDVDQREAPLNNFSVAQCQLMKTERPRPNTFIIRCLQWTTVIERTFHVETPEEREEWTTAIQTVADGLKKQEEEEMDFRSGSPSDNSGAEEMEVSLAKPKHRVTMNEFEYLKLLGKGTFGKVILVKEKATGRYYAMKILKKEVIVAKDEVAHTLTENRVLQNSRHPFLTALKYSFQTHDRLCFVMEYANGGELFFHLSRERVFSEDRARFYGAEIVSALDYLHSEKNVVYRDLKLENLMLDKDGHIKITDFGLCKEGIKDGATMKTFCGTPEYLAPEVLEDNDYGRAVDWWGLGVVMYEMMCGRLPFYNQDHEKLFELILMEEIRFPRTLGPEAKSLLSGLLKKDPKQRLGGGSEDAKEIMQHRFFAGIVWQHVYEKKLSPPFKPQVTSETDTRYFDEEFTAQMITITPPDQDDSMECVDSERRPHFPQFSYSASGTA

Legend:
Conditions in all cases: K562; 2-18 h
STK38 = STK38 (UniProt Q15208); test: kinase-Nluc reporter destabilization hit call (1 = scored as downregulated) (binary); higher = compound decreases kinase abundance
SYK = SYK (UniProt P43405); test: as above
TEC = TEC (UniProt P42680); test: as above
TYK2 = TYK2 (UniProt P29597); test: as above
ULK3 = ULK3 (UniProt Q6PHR2); test: as above
YES1 = YES1 (UniProt P07947); test: as above
ZAK = ZAK (UniProt Q9NYL2); test: as above
ZAP70 = ZAP70 (UniProt P43403); test: as above
ABL1 = ABL1 (UniProt P00519); test: number of time points (of 5) at which kinase-Nluc abundance scored as decreased, DMSO-normalised (count); higher = more persistent destabilization
AKT1 = AKT1 (UniProt P31749); test: as above

O=C1c2ccccc2C(=O)c2c1cccc2-c1cnn(C2CCNCC2)c1 [PDK4-IN-1 (hydrochloride)] (10 µM)
0: number of time points (ABL1) | number of time points (AKT1)
inactive: kinase-Nluc reporter destabilization hit call (STK38) 0 | kinase-Nluc reporter destabilization hit call (SYK) 0 | kinase-Nluc reporter destabilization hit call (TEC) 0 | kinase-Nluc reporter destabilization hit call (TYK2) 0 | kinase-Nluc reporter destabilization hit call (ULK3) 0 | kinase-Nluc reporter destabilization hit call (YES1) 0 | kinase-Nluc reporter destabilization hit call (ZAK) 0 | kinase-Nluc reporter destabilization hit call (ZAP70) 0

O=C(N[C@@H](COc1ccc2[nH]c(=O)[nH]c2c1)c1ccccc1)c1cccn(Cc2ccc(F)c(F)c2)c1=O (2.5 µM)
inactive: kinase-Nluc reporter destabilization hit call (STK38) 0 | kinase-Nluc reporter destabilization hit call (SYK) 0 | kinase-Nluc reporter destabilization hit call (TEC) 0 | kinase-Nluc reporter destabilization hit call (TYK2) 0 | kinase-Nluc reporter destabilization hit call (ULK3) 0 | kinase-Nluc reporter destabilization hit call (YES1) 0 | kinase-Nluc reporter destabilization hit call (ZAK) 0 | kinase-Nluc reporter destabilization hit call (ZAP70) 0
0: number of time points (ABL1) | number of time points (AKT1)

Cc1[nH]ncc1-c1cc2nc([C@H]3CC4CCN3CC4)[nH]c(=O)c2s1 [(R)-Simurosertib] (10 µM)
inactive: kinase-Nluc reporter destabilization hit call (STK38) 0 | kinase-Nluc reporter destabilization hit call (SYK) 0 | kinase-Nluc reporter destabilization hit call (TEC) 0 | kinase-Nluc reporter destabilization hit call (TYK2) 0 | kinase-Nluc reporter destabilization hit call (ULK3) 0 | kinase-Nluc reporter destabilization hit call (YES1) 0 | kinase-Nluc reporter destabilization hit call (ZAK) 0 | kinase-Nluc reporter destabilization hit call (ZAP70) 0
0: number of time points (ABL1) | number of time points (AKT1)

CCOC(=O)c1c(/C(C#N)=C\N)c2ccc(Cl)c(Cl)c2n1C (10 µM)
inactive: kinase-Nluc reporter destabilization hit call (STK38) 0 | kinase-Nluc reporter destabilization hit call (SYK) 0 | kinase-Nluc reporter destabilization hit call (TEC) 0 | kinase-Nluc reporter destabilization hit call (TYK2) 0 | kinase-Nluc reporter destabilization hit call (ULK3) 0 | kinase-Nluc reporter destabilization hit call (YES1) 0 | kinase-Nluc reporter destabilization hit call (ZAK) 0 | kinase-Nluc reporter destabilization hit call (ZAP70) 0
0: number of time points (ABL1) | number of time points (AKT1)

3 successive entries from above:
O=C1c2ccccc2C(=O)c2c1cccc2-c1cnn(C2CCNCC2)c1 [PDK4-IN-1 (hydrochloride)] (10 µM)
0: number of time points (ABL1) | number of time points (AKT1)
inactive: kinase-Nluc reporter destabilization hit call (STK38) 0 | kinase-Nluc reporter destabilization hit call (SYK) 0 | kinase-Nluc reporter destabilization hit call (TEC) 0 | kinase-Nluc reporter destabilization hit call (TYK2) 0 | kinase-Nluc reporter destabilization hit call (ULK3) 0 | kinase-Nluc reporter destabilization hit call (YES1) 0 | kinase-Nluc reporter destabilization hit call (ZAK) 0 | kinase-Nluc reporter destabilization hit call (ZAP70) 0

O=C(N[C@@H](COc1ccc2[nH]c(=O)[nH]c2c1)c1ccccc1)c1cccn(Cc2ccc(F)c(F)c2)c1=O (2.5 µM)
inactive: kinase-Nluc reporter destabilization hit call (STK38) 0 | kinase-Nluc reporter destabilization hit call (SYK) 0 | kinase-Nluc reporter destabilization hit call (TEC) 0 | kinase-Nluc reporter destabilization hit call (TYK2) 0 | kinase-Nluc reporter destabilization hit call (ULK3) 0 | kinase-Nluc reporter destabilization hit call (YES1) 0 | kinase-Nluc reporter destabilization hit call (ZAK) 0 | kinase-Nluc reporter destabilization hit call (ZAP70) 0
0: number of time points (ABL1) | number of time points (AKT1)

Cc1[nH]ncc1-c1cc2nc([C@H]3CC4CCN3CC4)[nH]c(=O)c2s1 [(R)-Simurosertib] (10 µM)
inactive: kinase-Nluc reporter destabilization hit call (STK38) 0 | kinase-Nluc reporter destabilization hit call (SYK) 0 | kinase-Nluc reporter destabilization hit call (TEC) 0 | kinase-Nluc reporter destabilization hit call (TYK2) 0 | kinase-Nluc reporter destabilization hit call (ULK3) 0 | kinase-Nluc reporter destabilization hit call (YES1) 0 | kinase-Nluc reporter destabilization hit call (ZAK) 0 | kinase-Nluc reporter destabilization hit call (ZAP70) 0
0: number of time points (ABL1) | number of time points (AKT1)

(list continues)

C[C@@H]1CC[C@H]2[C@@H](C)C(=O)O[C@@H]3O[C@@]4(C)CC[C@@H]1[C@]32OO4 [Artemisinin] (10 µM)
0: number of time points (ABL1) | number of time points (AKT1)
inactive: kinase-Nluc reporter destabilization hit call (STK38) 0 | kinase-Nluc reporter destabilization hit call (SYK) 0 | kinase-Nluc reporter destabilization hit call (TEC) 0 | kinase-Nluc reporter destabilization hit call (TYK2) 0 | kinase-Nluc reporter destabilization hit call (ULK3) 0 | kinase-Nluc reporter destabilization hit call (YES1) 0 | kinase-Nluc reporter destabilization hit call (ZAK) 0 | kinase-Nluc reporter destabilization hit call (ZAP70) 0

CN(C)C(=O)c1ccc(Cn2c(C(=O)O)cc3c(Br)cc(Sc4ccc(Cl)c(Cl)c4)cc32)cc1 [Rheb inhibitor NR1] (10 µM)
inactive: kinase-Nluc reporter destabilization hit call (STK38) 0 | kinase-Nluc reporter destabilization hit call (SYK) 0 | kinase-Nluc reporter destabilization hit call (TEC) 0 | kinase-Nluc reporter destabilization hit call (TYK2) 0 | kinase-Nluc reporter destabilization hit call (ULK3) 0 | kinase-Nluc reporter destabilization hit call (YES1) 0 | kinase-Nluc reporter destabilization hit call (ZAK) 0 | kinase-Nluc reporter destabilization hit call (ZAP70) 0
0: number of time points (ABL1) | number of time points (AKT1)

O=[N+]([O-])/C=C/c1ccc2c(c1)OCO2 (2.5 µM)
inactive: kinase-Nluc reporter destabilization hit call (STK38) 0 | kinase-Nluc reporter destabilization hit call (SYK) 0 | kinase-Nluc reporter destabilization hit call (TEC) 0 | kinase-Nluc reporter destabilization hit call (TYK2) 0 | kinase-Nluc reporter destabilization hit call (ULK3) 0 | kinase-Nluc reporter destabilization hit call (YES1) 0 | kinase-Nluc reporter destabilization hit call (ZAK) 0 | kinase-Nluc reporter destabilization hit call (ZAP70) 0
0: number of time points (ABL1) | number of time points (AKT1)

N#CC(C#N)=NNc1cccc(Cl)c1 (2.5 µM)
3: number of time points (ABL1)
inactive: kinase-Nluc reporter destabilization hit call (STK38) 0 | kinase-Nluc reporter destabilization hit call (SYK) 0 | kinase-Nluc reporter destabilization hit call (TEC) 0 | kinase-Nluc reporter destabilization hit call (TYK2) 0 | kinase-Nluc reporter destabilization hit call (ULK3) 0 | kinase-Nluc reporter destabilization hit call (YES1) 0 | kinase-Nluc reporter destabilization hit call (ZAK) 0 | kinase-Nluc reporter destabilization hit call (ZAP70) 0
0: number of time points (AKT1)

CCCCCCCCCCCCCCCCOC[C@H](COP(=O)([O-])OCC[N+](C)(C)C)OC(C)=O (10 µM)
0: number of time points (ABL1) | number of time points (AKT1)
inactive: kinase-Nluc reporter destabilization hit call (STK38) 0 | kinase-Nluc reporter destabilization hit call (SYK) 0 | kinase-Nluc reporter destabilization hit call (TEC) 0 | kinase-Nluc reporter destabilization hit call (TYK2) 0 | kinase-Nluc reporter destabilization hit call (ULK3) 0 | kinase-Nluc reporter destabilization hit call (YES1) 0 | kinase-Nluc reporter destabilization hit call (ZAK) 0 | kinase-Nluc reporter destabilization hit call (ZAP70) 0

CCCS(=O)(=O)Nc1ccc(F)c(-n2cc(-c3cncnc3)c3nc(N(C)C4CCN(CC)CC4)ccc32)c1F (2 µM)
0: number of time points (ABL1) | number of time points (AKT1)
inactive: kinase-Nluc reporter destabilization hit call (STK38) 0 | kinase-Nluc reporter destabilization hit call (SYK) 0 | kinase-Nluc reporter destabilization hit call (TEC) 0 | kinase-Nluc reporter destabilization hit call (TYK2) 0 | kinase-Nluc reporter destabilization hit call (ULK3) 0 | kinase-Nluc reporter destabilization hit call (YES1) 0 | kinase-Nluc reporter destabilization hit call (ZAK) 0 | kinase-Nluc reporter destabilization hit call (ZAP70) 0

O=C(O)c1sc2cc(Cl)ccc2c1Cl (10 µM)
inactive: kinase-Nluc reporter destabilization hit call (STK38) 0 | kinase-Nluc reporter destabilization hit call (SYK) 0 | kinase-Nluc reporter destabilization hit call (TEC) 0 | kinase-Nluc reporter destabilization hit call (TYK2) 0 | kinase-Nluc reporter destabilization hit call (ULK3) 0 | kinase-Nluc reporter destabilization hit call (YES1) 0 | kinase-Nluc reporter destabilization hit call (ZAK) 0 | kinase-Nluc reporter destabilization hit call (ZAP70) 0
0: number of time points (ABL1) | number of time points (AKT1)

C=CC(=O)N[C@H]1C=C(C)c2c(-c3cnc4ccccc4c3)c3c(N)ncnc3n2C1 (10 µM)
inactive: kinase-Nluc reporter destabilization hit call (STK38) 0 | kinase-Nluc reporter destabilization hit call (SYK) 0 | kinase-Nluc reporter destabilization hit call (TEC) 0 | kinase-Nluc reporter destabilization hit call (TYK2) 0 | kinase-Nluc reporter destabilization hit call (ULK3) 0 | kinase-Nluc reporter destabilization hit call (YES1) 0 | kinase-Nluc reporter destabilization hit call (ZAK) 0 | kinase-Nluc reporter destabilization hit call (ZAP70) 0
0: number of time points (ABL1) | number of time points (AKT1)

CCN1CCN(C(=O)Cc2ccc(Nc3ncc(F)c(Nc4ccc(C(=O)Nc5ccccc5Cl)cc4)n3)cc2)CC1 (2.5 µM)
0: number of time points (ABL1) | number of time points (AKT1)
inactive: kinase-Nluc reporter destabilization hit call (STK38) 0 | kinase-Nluc reporter destabilization hit call (SYK) 0 | kinase-Nluc reporter destabilization hit call (TEC) 0 | kinase-Nluc reporter destabilization hit call (TYK2) 0 | kinase-Nluc reporter destabilization hit call (ULK3) 0 | kinase-Nluc reporter destabilization hit call (YES1) 0 | kinase-Nluc reporter destabilization hit call (ZAK) 0 | kinase-Nluc reporter destabilization hit call (ZAP70) 0

N#CC(C#N)=Cc1ccc(O)c(O)c1 [Tyrphostin 23] (10 µM)
inactive: kinase-Nluc reporter destabilization hit call (STK38) 0 | kinase-Nluc reporter destabilization hit call (SYK) 0 | kinase-Nluc reporter destabilization hit call (TEC) 0 | kinase-Nluc reporter destabilization hit call (TYK2) 0 | kinase-Nluc reporter destabilization hit call (ULK3) 0 | kinase-Nluc reporter destabilization hit call (YES1) 0 | kinase-Nluc reporter destabilization hit call (ZAK) 0 | kinase-Nluc reporter destabilization hit call (ZAP70) 0
0: number of time points (ABL1) | number of time points (AKT1)
